# According to PubChem BioAssay AID1671190 (National Center for Advancing Translational Sciences (NCATS), 2021):
# The chains behind the UniProt entries cited, without tags or fusion partners. Where a name states a change or a piece, a line headed by the entry shows the natural chain unless it says otherwise.
# UniProt P18054: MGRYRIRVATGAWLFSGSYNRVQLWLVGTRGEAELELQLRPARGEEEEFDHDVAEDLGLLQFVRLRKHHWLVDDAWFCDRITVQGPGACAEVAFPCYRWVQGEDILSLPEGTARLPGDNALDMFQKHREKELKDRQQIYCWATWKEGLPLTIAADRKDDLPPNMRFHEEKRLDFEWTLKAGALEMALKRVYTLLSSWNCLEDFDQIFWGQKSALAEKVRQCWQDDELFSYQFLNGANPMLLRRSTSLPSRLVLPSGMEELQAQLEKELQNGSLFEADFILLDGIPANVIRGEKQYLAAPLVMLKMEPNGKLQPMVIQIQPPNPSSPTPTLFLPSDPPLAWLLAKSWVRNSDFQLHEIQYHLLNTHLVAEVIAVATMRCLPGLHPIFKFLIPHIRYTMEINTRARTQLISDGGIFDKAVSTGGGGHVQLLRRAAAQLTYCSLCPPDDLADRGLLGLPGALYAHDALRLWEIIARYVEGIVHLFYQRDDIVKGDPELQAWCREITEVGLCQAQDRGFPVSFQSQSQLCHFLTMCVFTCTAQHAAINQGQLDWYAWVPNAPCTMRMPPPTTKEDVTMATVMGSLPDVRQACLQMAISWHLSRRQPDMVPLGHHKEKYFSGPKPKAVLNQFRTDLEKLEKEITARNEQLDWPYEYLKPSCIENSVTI
# Values joined by “and” are separate entries in the source; they are usually repeats but may differ in a detail not shown here. Equal entries are not always repeated. In all, about 580,000 compounds went through this assay and about 6,100 (1.1%) were called active. Inconclusive means that the source gave no clear call. Such entries were picked first, then a sample of the others. Calls come from the whole dose curve; as a rule, active = well fitted inhibition curve with a large enough effect; inconclusive = small, poorly fitted or top-dose-only effect, or another doubt; inactive = no such curve, though single readings can be large or run the other way. Potencies of inconclusive entries are doubtful fits and often do not repeat.
# Target: Polyunsaturated fatty acid lipoxygenase ALOX12 (Homo sapiens) (UniProt P18054)
# Assay: Primary qHTS assay for inhibitors of human arachidonate 12S-lipoxygenase (ALOX12): Round 2
# Details: purified 12hLO, xylenol orange hydroperoxide absorbance; series mostly up to 108 µM
# Procedure, shortened: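 Hydroperoxide product was detected by ferrous iron/xylenol orange as the 573 to 405 nm absorbance ratio. Arachidonic acid at 40 uM (final) was turned over for 30 min at room temperature by 150 nM human 12hLO, pH 7.0 Hepes buffer, after 15 min compound preincubation.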
# Potency is the fitted concentration of half-maximal effect.
row,Structure (SMILES),Potency
1,O=C(O)C1=C[C@@H](c2ccc(C(F)(F)F)cc2)C[C@@H](OCc2ccc(CO)cc2)O1,inactive
2,COc1ccccc1NC(=O)Nc1ccccc1Br,inactive
3,O=C(N/C=C/c1ccco1)OCc1ccccc1,active: 39.8 µM
4,CN1CC(=O)N(C2CCCNCC2)Cc2c(NCCO)ncnc21 (configuration not stated),"inconclusive: 5 µM [inhibitor, single point]"
5,CN(CC(=O)Nc1ccccc1C(=O)NC1CC1)Cc1ccccc1F,inactive
6,CCCCCCCCNC(=O)c1cnsn1,inactive
7,CC(=O)c1c(C)n([O-])c2ccc(C)cc2[n+]1=O,"inconclusive: 44.7 µM [inhibitor, partial curve, poor fit]"
8,Cc1ccc(C(=O)O)cc1S(=O)(=O)NCCCN1CCOCC1,"inconclusive: 17.8 µM [inhibitor, full curve, poor fit]"
9,COc1ccc(CNC(=O)C2CCN(S(=O)(=O)c3ccc(SC)cc3)CC2)cc1,"inconclusive: 39.8 µM [inhibitor, partial curve, poor fit]"
10,COc1ccc(Cl)cc1-c1n[nH]c(=S)o1,"inconclusive: 8.91 µM [inhibitor, full curve, poor fit]"
11,O=c1c2cc3c(cc2[nH]c(=S)n1CCN1CCOCC1)OCO3,inactive
12,N/C(=N/O)c1cccc(CN2CCOCC2)c1,inactive
13,O=S(=O)(c1ccc(Cl)c(Cl)c1)N1CCN(c2ccc(Nc3ccccc3)nn2)CC1,inactive
14,CNC(=O)NC(=O)CN(Cc1ccc(C)cc1)C1CC1,inactive
15,CN(C)CCCN(C(=O)c1ccc(S(=O)(=O)N(C)C2CCCCC2)cc1)c1nc2ccc(F)cc2s1,"inconclusive: 44.7 µM [inhibitor, partial curve, poor fit]"
16,CC(=O)COc1ccc2c(C)c(CC(C)C)c(=O)oc2c1,inactive
17,CCNC(=O)c1ccccc1SCc1ccccc1,inactive
18,COc1ccc(NCC(=O)N/N=C/c2c(C)nn(Cc3ccccc3)c2Cl)cc1,inactive
19,Clc1ccc(-c2nc3ccc(Cl)cn3c2Cc2ccsc2)cc1,"inconclusive: 44.7 µM [inhibitor, partial curve, poor fit]"
20,CCSS(=O)(=O)c1cccc2cccnc12,"inconclusive: 2.82 µM [inhibitor, full curve, poor fit]"
21,O=C(CSc1ncccc1-c1nc2ccccc2[nH]1)N1CCCCC1,"inconclusive: 35.5 µM [inhibitor, partial curve, poor fit]"
22,CCOC(=O)c1ccc(N2C(=O)c3n[nH]c(C)c3C2c2ccc(OCC)cc2)cc1 (configuration not stated),"inconclusive: 39.8 µM [inhibitor, partial curve, poor fit]"
23,COc1ccc(-c2nc(-c3ccc(Br)o3)no2)cc1OC,"inconclusive: 50.1 µM [inhibitor, partial curve, poor fit]"
24,Cc1cccc(NC(=O)c2ccc(F)c(S(=O)(=O)N3CCC4(CC3)OCCO4)c2)c1,inactive

row,Structure (SMILES),Potency
1,COc1ccc(N2CCN(c3ncnc4onc(-c5ccc(F)cc5)c34)CC2)cc1,inactive
2,COc1ccc2nc(/C=N/NC(=O)CCCCCNC(=O)OC(C)(C)C)ccc2c1,"inconclusive: 44.7 µM [inhibitor, partial curve, poor fit]"
3,O=C(COC(=O)CCS(=O)(=O)c1ccc(Cl)cc1)Nc1ncc(Cl)cc1Cl,"inconclusive: 89.1 µM [inhibitor, single point]"
4,COc1ccc(-c2noc(CC3CCN(C(=O)Cc4cccc(C)c4)CC3)n2)cc1,"inconclusive: 70.8 µM [inhibitor, single point]"
5,CCN1CCC(O)C(C)C1C (configuration not stated),inactive
6,CCc1ccc(S(=O)(=O)N(C)CC2CCOCC2)cc1,inactive
7,COC(=O)[C@H](C)N1C/C=C\COc2c(Cl)cc(Cl)cc2S1(=O)=O,"inconclusive: 11.2 µM [inhibitor, partial curve, poor fit]"
8,C=CCc1cccc(/C=N/NC(=O)CCCNc2ccc(C)cc2)c1O,"inconclusive: 44.7 µM [inhibitor, full curve, poor fit]"
9,CC(=O)c1cc2c(cc1NC(=O)c1cnc(C)cn1)OCO2,inactive
10,Cc1nc(NC(=O)C2CC(=O)N(Cc3ccccn3)C2)sc1C (configuration not stated),inactive
11,COCOCCn1cc(CN2CCS(=O)(=O)N(Cc3ccc(-c4ccc(OC)cc4)cc3)C(CC(C)C)C2=O)nn1 (configuration not stated),"inconclusive: 0.251 µM [inhibitor, full curve, poor fit]"
12,COc1ccc(-c2ccc(CN3C(C)C(=O)N(Cc4cn(Cc5ccco5)nn4)CCS3(=O)=O)cc2)cc1 (configuration not stated),"inconclusive: 50.1 µM [inhibitor, partial curve, poor fit]"
13,Cc1noc(C)c1S(=O)(=O)N1C[C@@H](F)C[C@H]1C(=O)N1CCCCC1,inactive
14,O=C(COC(=O)Cc1ccc(Cl)cc1)NCc1ccc(Cl)cc1,"inconclusive: 44.7 µM [inhibitor, partial curve, poor fit] and inconclusive: 35.5 µM [inhibitor, partial curve, poor fit]"
15,O=C(CSc1nc2ccccc2s1)Nc1ccc(N2CCOCC2)c(Cl)c1,"inconclusive: 100 µM [inhibitor, single point]"
16,Cc1cccc(C)c1NC(=O)CN(C)C(=O)CCc1nc2sc3c(c2c(=O)[nH]1)CCCC3,inactive
17,Cc1ccn2c(Nc3ccc4c(c3)OCCO4)c(-c3cccs3)nc2c1,"inconclusive: 100 µM [inhibitor, partial curve, poor fit]"
18,CCc1ccc(C2CC(=O)c3c([nH]c(C(=O)OCCOc4ccccc4)c3C)C2)cc1 (configuration not stated),"inconclusive: 100 µM [inhibitor, partial curve, poor fit]"
19,CSc1cccc(NC(=S)N(C(C)C)C(C)c2ccccn2)c1 (configuration not stated),"inconclusive: 11.2 µM [inhibitor, full curve, poor fit]"
20,Cc1cc2n(n1)SC(Nc1ccccc1)N2 (configuration not stated),active: 14.1 µM
21,CN1C(=O)CCCCC1C(=O)N1CCc2ccccc2C1 (configuration not stated),inactive
22,Nc1nc(C2CC(N)C2)cc(N2CCC(C(=O)NCc3ccccn3)CC2)n1 (configuration not stated),"inconclusive: 1.58 µM [inhibitor, full curve, poor fit]"
23,CN(Cc1ccccc1)Cc1cc(C[C@@H]2C[C@H](NC(=O)C3CC3)C2(C)C)no1,"inconclusive: 17.8 µM [inhibitor, partial curve, poor fit]"
24,COc1ccccc1CN1CCc2ccccc2C1,"inconclusive: 0.316 µM [inhibitor, full curve, poor fit]"

row,Structure (SMILES),Potency
1,Fc1ccc(NC(=S)Nc2cccnc2)c(F)c1F,"inconclusive: 100 µM [inhibitor, single point]"
2,CCc1nc2c(OCCc3cccc(OC)c3)cccn2c1N(C)C(=O)c1cccs1,inactive
3,Cc1cccc(NC(=S)N/N=C/C2=CCC3CC2C3(C)C)c1C (configuration not stated),"inconclusive: 50.1 µM [inhibitor, partial curve, poor fit]"
4,Cn1c(C(=O)NCc2ccccn2)cc2c(=O)n(C)c3ccccc3c21,inactive
5,CCOC(=O)c1sc(NC2CC2)nc1C(F)(F)F,inactive
6,Cc1cccc(NS(=O)(=O)c2cc(C(=O)N3CCCCCC3)ccc2C)c1,"inconclusive: 28.2 µM [inhibitor, single point]"
7,Fc1ccc(Sc2ncccc2Cl)cc1,inactive
8,COc1cccc(C(=O)O)c1OS(=O)(=O)c1ccc(C)cc1,"inconclusive: 100 µM [inhibitor, partial curve, poor fit]"
9,O=C(COC(=O)c1cc(-c2ccc(Cl)s2)nc2ccccc12)NCc1ccco1,"inconclusive: 8.91 µM [inhibitor, partial curve, poor fit]"
10,COc1ccc(NC(=O)Cn2c(=O)n(-c3cccc(C(F)(F)F)c3)c(=O)c3sccc32)cc1,inactive
11,C=CCN(CC=C)S(=O)(=O)c1ccc(NC(=S)NC(=O)/C=C/c2ccccc2)cc1,"inconclusive: 2.82 µM [inhibitor, full curve, poor fit]"
12,C/C(=C\c1ccccc1)CN1CCC(C(=O)N2CCCCC2)CC1,"inconclusive: 1.26 µM [inhibitor, full curve]"
13,CN1CCN(C(=S)C(=O)NCc2ccccc2)CC1,inactive
14,CC1CCCC(NC(=O)c2ccc3c(Cl)c4c(nc3c2)CCC4)C1C (configuration not stated),inactive
15,Cc1[nH]c2ccccc2c1C1(O)C(=O)N(Cc2ccccc2Cl)c2ccccc21 (configuration not stated),inactive
16,O=C(CSc1nccc(-c2cccs2)n1)Nc1ccc(F)c(Cl)c1,inactive
17,O=C(Nc1ccc(N2CCCCC2)cc1)C1=COCCO1,"inconclusive: 100 µM [inhibitor, single point]"
18,NS(=O)(=O)c1ccc(CCNC(=O)C2CCC(CNS(=O)(=O)c3ccc(Br)s3)CC2)cc1 (configuration not stated),"inconclusive: 5.01 µM [inhibitor, full curve, poor fit]"
19,CCOC(=O)c1c(NC(=O)C2CCCO2)sc(C(N)=O)c1C (configuration not stated),inactive
20,CC(C)NC(=O)N1CCC2(CC1)CN(C(=O)Cc1ccc(O)cc1)CCO2,"inconclusive: 2.82 µM [inhibitor, full curve, poor fit]"
21,O=C(O)c1cc(O)c2ccccc2c1O,active: 70.8 µM
22,O=C1CN(C(=O)c2ccco2)C(c2ccc(F)cc2)c2cc(Cl)ccc2N1 (configuration not stated),"inconclusive: 50.1 µM [inhibitor, partial curve, poor fit]"
23,O=C(/C(Br)=C/Nc1ccc(Cl)cc1Cl)C(F)(F)F,"inconclusive: 31.6 µM [inhibitor, partial curve, poor fit]"
24,COCC(=O)N1CC[C@@H](CC(=O)O)[C@@H](CC2=NCCc3ccc(C)cc32)C1,"inconclusive: 35.5 µM [inhibitor, full curve]"

# 2 of the compounds above, with bars between the fields.
row | Structure (SMILES) | Potency
5 | CCOC(=O)c1sc(NC2CC2)nc1C(F)(F)F | inactive
8 | COc1cccc(C(=O)O)c1OS(=O)(=O)c1ccc(C)cc1 | inconclusive: 100 µM [inhibitor, partial curve, poor fit]

# A second format for part of the listing above.
row | Structure (SMILES) | Potency
3 | O=C(N/C=C/c1ccco1)OCc1ccccc1 | active: 39.8 µM
6 | CCCCCCCCNC(=O)c1cnsn1 | inactive
8 | C=CCc1cccc(/C=N/NC(=O)CCCNc2ccc(C)cc2)c1O | inconclusive: 44.7 µM [inhibitor, full curve, poor fit]
